Test results from patent publication US20220056147A1.
Results are given in words; binding and its absence hold for the method and conditions named. Some entries that bind do so weakly or less than the wild type.

By UniProt entry, the sequences of proteins in these tests, tags left out. Where a name states a change or a piece, a line headed by the entry shows the natural chain unless it says otherwise. Chains listed by the source or under a name are the forms on record and can include a tag or linker.
recombinant human MSLN protein (Yiqiao Shenzhou) (Q13421, form named): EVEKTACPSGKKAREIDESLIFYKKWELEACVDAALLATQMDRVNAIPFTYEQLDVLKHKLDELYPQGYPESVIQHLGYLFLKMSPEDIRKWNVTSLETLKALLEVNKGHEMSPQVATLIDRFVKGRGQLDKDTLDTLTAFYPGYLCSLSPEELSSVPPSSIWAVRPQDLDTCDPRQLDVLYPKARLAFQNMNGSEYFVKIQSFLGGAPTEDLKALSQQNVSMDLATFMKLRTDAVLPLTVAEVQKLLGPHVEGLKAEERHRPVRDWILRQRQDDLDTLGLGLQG

Target: recombinant human MSLN protein (Yiqiao Shenzhou) (human) (UniProt Q13421)
Test: competition ELISA on plate-coated recombinant MSLN; competitor CA125-his at 200 ng/mL, anti-his detection

B1: RC88 antibody (antibody, human IgG1, kappa, V domains shown)
VH: EVQLVESGGGLVQPGGSLRLSCAASGFDFSRYWMSWVRQAPGKGLEWIGEINPDSSTIVYTPSLKDKFIISRDNAKNTLYLQMNSLRAEDTALYYCARRGSHYYGYRTGYFDVWGAGTTVTVSS
VL: DVVMTQSPAFLSVTPGEKVTMTCSASSSVSYMYWHQQKPDQAPKLLIYDTSNLASGVPVRFSGSGSGTDFTFTISRMEAEDAATYYCQQWSSYPPTFGGGTKVEIKR
  binding: binds
